Residue numbers refer to the chain shown, from its start. Results are given in words; binding and its absence hold for the method and conditions named. For some of these results: Binding seen in cells or lysates may run through a third protein. Some entries that bind do so weakly or less than the wild type. Where a sequence is shown, tags or fusion partners need not be part of it.

Chains of the proteins cited; added tags and fusions are not shown. Lines headed by an entry give the natural chain unless they say otherwise; changes in a name come on top. A line that says so, or that is headed by a name, gives the form on record, which may keep a tag or linker.
WIPI3-Δloop (Q5MNZ6, form named): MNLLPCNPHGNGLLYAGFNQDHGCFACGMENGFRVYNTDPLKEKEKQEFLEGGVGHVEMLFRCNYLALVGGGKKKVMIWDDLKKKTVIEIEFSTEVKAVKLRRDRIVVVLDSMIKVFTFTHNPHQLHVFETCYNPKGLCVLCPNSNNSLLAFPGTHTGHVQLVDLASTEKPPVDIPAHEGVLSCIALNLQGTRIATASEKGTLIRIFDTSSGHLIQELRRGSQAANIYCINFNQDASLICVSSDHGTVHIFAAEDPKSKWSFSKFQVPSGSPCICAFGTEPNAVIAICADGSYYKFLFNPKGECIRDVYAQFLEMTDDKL
WIPI3-Δloop N19A/D21A (Q5MNZ6, form named): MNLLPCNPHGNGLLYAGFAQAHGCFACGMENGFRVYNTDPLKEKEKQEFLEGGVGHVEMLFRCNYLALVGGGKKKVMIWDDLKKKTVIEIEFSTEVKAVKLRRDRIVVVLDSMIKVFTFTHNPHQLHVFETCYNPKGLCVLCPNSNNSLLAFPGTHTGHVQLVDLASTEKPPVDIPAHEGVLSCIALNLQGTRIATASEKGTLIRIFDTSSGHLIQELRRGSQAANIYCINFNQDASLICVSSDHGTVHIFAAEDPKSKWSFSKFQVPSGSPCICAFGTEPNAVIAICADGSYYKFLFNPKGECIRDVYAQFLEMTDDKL

In experiment [1] the target is Tandem-Strep-Flag-tagged full-length ATG2A (wild-type) (human) (UniProt Q2TAZ0). Briefly: pull-down; GFP-WIPI4 and TSF-ATG2A co-transfected into HEK293T cells; lysate on Strep-Tactin Sepharose beads, 1 h at 4 °C; eluted with desthiobiotin; western blot with anti-GFP and anti-Flag.
A further experiment deals with WIPI3-Δloop (human) (UniProt Q5MNZ6). As to the kind of experiment: ITC; WIPI3 proteins in the sample cell, GB1-tagged ATG2A fragments in the syringe; 25 °C; 50 mM Tris-HCl pH 8.0, 100 mM NaCl, 1 mM EDTA, 1 mM DTT; model of one binding site; both purified. (In general: ITC needs no label: the signal is the heat of the interaction.)
Experiment [2] deals with WIPI3-Δloop N19A/D21A (human) (UniProt Q5MNZ6). The experiment is described as above.

B1: GFP-tagged WIPI4 (protein, UniProt Q9Y484 1-360)
chain: MTQQPLRGVTSLRFNQDQSCFCCAMETGVRIYNVEPLMEKGHLDHEQVGSMGLVEMLHRSNLLALVGGGSSPKFSEISVLIWDDAREGKDSKEKLVLEFTFTKPVLSVRMRHDKIVIVLKNRIYVYSFPDNPRKLFEFDTRDNPKGLCDLCPSLEKQLLVFPGHKCGSLQLVDLASTKPGTSSAPFTINAHQSDIACVSLNQPGTVVASASQKGTLIRLFDTQSKEKLVELRRGTDPATLYCINFSHDSSFLCASSDKGTVHIFALKDTRLNRRSALARVGKVGPMIGQYVDSQWSLASFTVPAESACICAFGRNTSKNVNSVIAICVDGTFHKYVFTPDGNCNREAFDVYLDICDDDDF
In the case of B1, the binding entry in experiment [1] is reported as “binds”.

B2: GB1-tagged WIR-peptide with a glycine inserted between R1392 and D1393 (peptide, UniProt Q2TAZ0 1374-1404)
chain: PRDGEPVVTQLHPGPIVVRGDGYFSRPIGSTD
With B2, the binding result with WIPI3-Δloop (human) is “no binding”.

B3: GB1-tagged WIR-peptide with a glycine inserted between D1393 and G1394 (peptide, UniProt Q2TAZ0 1374-1404)
chain: B2 chain with G20D, D21G
Take B3: the binding result with WIPI3-Δloop (human) was “no binding”.

B4: GB1-tagged ATG2A short fragment (1374-1404), the WIR-peptide (peptide, UniProt Q2TAZ0 1374-1404)
chain: PRDGEPVVTQLHPGPIVVRDGYFSRPIGSTD
For the molecule B4, the binding result in experiment [2] is recorded as “no binding”.

Source of the values: publication PMC7264293, “Multi-site-mediated entwining of the linear WIR-motif around WIPI β-propellers for autophagy” (Nature Communications, 2020).
